# Results: patent US20230130831A1 (Washington University, priority 2021, published 2023)
# Entries after “also recorded” stand apart in the source; their conditions may differ. Where a SMILES comes first, the peptide text is derived from it. Bridges are numbered along the chain shown (N, C = ends). The star is where a group is joined. X1 = CC1(C)C(/C=C/C=C/C=C/C=C2/N(CCC(=O)*)c3ccc4ccccc4c3C2(C)C)=[N+](CCC(=O)[O-])c2ccc3ccccc3c21
# Experiments:
# [1] = test system: K/BxN (F1) mice with spontaneous arthritis; experiment: Whole-body near-infrared fluorescence imaging in K/BxN spontaneous arthritis mice; details: 6 nmol i.v., 18 h post-injection
# Method: The K/BxN mice with spontaneous arthritis (F1) were maintained in the laboratory. To establish serum transfer arthritis (STA), male 6-8 weeks old C57BL/6J mice were injected intraperitoneally with 150-175 μL of serum derived from F1 mice (8-9 weeks old). Day 0 denoted induction of serum transfer/disease. Clinical manifestation of arthritis in each paw was assessed daily on a scale of 0-3 with 0=no swelling or erythema, 1=slight swelling or erythema, 2=moderate erythema and swelling in multiple digits or entire paw, and 3=pronounced erythema and swelling of an entire paw, with a maximum score of 12 per mouse. The ankle thickness of two hind paws was measured using calipers. Animals were monitored for distress during arthritis induction, including their ability to move around the cage and access food/water.
# In the K/BxN (F1) mice with spontaneous arthritis, inflammation occurs progressively in the paws, ankle, and knee joints leading to measurable local erythema and swelling. F1 mice with severe arthritis (9-10 weeks old) were injected intravenously with LS301 and imaged 18 h post-injection for near-infrared fluorescence using the Pearl Small Animal Imaging System.
# Arthritic or control (non-diseased) mice were injected intravenously with 6 nmol LS301. […] Images shown represented at least two independent experiments and were taken at 18 h post-injection with mice in dorsal orientation. […]
# [2] = general procedure: Fmoc solid-phase peptide synthesis; Fmoc-Lys(Boc)-Wang resin; HBTU/DIEA; details: whole synthesis, analytical HPLC, scale 0.1 mmol
Molecule,diagnostic identification of animals with RA vs. healthy animals [1],"correlation between fluorescence signal and disease severity (clinical paw scoring) ([1]; F1 mice with early, intermediate or late-stage arthritis)",final HPLC purity [2]
"CC1(C)C(/C=C/C=C/C=C/C=C2/N(CCC(=O)N[C@@H]3CSSC[C@@H](C(=O)N[C@@H](CCCCN)C(=O)O)NC(=O)[C@@H]4CCCN4C(=O)[C@H](CO)NC(=O)[C@H](CC(=O)O)NC(=O)[C@H](CCCNC(=N)N)NC(=O)CNC3=O)c3ccc4ccccc4c3C2(C)C)=[N+](CCC(=O)[O-])c2ccc3ccccc3c21 [LS301, cypate-cyclic (DCys-Gly-Arg-Asp-Ser-Pro-Cys)-Lys-OH] (X1-CGRDSPCK-OH; disulfide 1-7; configuration not given here)",diagnostically identified animals with RA vs. healthy (non-diseased) animals,positive correlation between fluorescence signal and disease severity; also recorded: fluorescence intensity correlating to disease severity,–
cypate-cyclic (DCys-Gly-Arg-Asp-Ser-Pro-Cys)-Lys-OH,–,–,>95%
